Data reported in article PMC3393660, “Structural Interaction and Functional Regulation of Polycystin-2 by Filamin” (PLoS ONE, 2012).
No constants are given. Whether binding was seen depends on the method and setting. For part of these data: In cells and extracts the contact can be indirect. Some results given as binding are weak or reduced against the parent protein; the word gives no strength. For part of these data: Where a sequence is shown, tags or fusion partners need not be part of it.

By UniProt entry, the sequences of proteins in these tests, tags left out. Where a name states a change or a piece, a line headed by the entry shows the natural chain unless it says otherwise.
UniProt Q8BTM8: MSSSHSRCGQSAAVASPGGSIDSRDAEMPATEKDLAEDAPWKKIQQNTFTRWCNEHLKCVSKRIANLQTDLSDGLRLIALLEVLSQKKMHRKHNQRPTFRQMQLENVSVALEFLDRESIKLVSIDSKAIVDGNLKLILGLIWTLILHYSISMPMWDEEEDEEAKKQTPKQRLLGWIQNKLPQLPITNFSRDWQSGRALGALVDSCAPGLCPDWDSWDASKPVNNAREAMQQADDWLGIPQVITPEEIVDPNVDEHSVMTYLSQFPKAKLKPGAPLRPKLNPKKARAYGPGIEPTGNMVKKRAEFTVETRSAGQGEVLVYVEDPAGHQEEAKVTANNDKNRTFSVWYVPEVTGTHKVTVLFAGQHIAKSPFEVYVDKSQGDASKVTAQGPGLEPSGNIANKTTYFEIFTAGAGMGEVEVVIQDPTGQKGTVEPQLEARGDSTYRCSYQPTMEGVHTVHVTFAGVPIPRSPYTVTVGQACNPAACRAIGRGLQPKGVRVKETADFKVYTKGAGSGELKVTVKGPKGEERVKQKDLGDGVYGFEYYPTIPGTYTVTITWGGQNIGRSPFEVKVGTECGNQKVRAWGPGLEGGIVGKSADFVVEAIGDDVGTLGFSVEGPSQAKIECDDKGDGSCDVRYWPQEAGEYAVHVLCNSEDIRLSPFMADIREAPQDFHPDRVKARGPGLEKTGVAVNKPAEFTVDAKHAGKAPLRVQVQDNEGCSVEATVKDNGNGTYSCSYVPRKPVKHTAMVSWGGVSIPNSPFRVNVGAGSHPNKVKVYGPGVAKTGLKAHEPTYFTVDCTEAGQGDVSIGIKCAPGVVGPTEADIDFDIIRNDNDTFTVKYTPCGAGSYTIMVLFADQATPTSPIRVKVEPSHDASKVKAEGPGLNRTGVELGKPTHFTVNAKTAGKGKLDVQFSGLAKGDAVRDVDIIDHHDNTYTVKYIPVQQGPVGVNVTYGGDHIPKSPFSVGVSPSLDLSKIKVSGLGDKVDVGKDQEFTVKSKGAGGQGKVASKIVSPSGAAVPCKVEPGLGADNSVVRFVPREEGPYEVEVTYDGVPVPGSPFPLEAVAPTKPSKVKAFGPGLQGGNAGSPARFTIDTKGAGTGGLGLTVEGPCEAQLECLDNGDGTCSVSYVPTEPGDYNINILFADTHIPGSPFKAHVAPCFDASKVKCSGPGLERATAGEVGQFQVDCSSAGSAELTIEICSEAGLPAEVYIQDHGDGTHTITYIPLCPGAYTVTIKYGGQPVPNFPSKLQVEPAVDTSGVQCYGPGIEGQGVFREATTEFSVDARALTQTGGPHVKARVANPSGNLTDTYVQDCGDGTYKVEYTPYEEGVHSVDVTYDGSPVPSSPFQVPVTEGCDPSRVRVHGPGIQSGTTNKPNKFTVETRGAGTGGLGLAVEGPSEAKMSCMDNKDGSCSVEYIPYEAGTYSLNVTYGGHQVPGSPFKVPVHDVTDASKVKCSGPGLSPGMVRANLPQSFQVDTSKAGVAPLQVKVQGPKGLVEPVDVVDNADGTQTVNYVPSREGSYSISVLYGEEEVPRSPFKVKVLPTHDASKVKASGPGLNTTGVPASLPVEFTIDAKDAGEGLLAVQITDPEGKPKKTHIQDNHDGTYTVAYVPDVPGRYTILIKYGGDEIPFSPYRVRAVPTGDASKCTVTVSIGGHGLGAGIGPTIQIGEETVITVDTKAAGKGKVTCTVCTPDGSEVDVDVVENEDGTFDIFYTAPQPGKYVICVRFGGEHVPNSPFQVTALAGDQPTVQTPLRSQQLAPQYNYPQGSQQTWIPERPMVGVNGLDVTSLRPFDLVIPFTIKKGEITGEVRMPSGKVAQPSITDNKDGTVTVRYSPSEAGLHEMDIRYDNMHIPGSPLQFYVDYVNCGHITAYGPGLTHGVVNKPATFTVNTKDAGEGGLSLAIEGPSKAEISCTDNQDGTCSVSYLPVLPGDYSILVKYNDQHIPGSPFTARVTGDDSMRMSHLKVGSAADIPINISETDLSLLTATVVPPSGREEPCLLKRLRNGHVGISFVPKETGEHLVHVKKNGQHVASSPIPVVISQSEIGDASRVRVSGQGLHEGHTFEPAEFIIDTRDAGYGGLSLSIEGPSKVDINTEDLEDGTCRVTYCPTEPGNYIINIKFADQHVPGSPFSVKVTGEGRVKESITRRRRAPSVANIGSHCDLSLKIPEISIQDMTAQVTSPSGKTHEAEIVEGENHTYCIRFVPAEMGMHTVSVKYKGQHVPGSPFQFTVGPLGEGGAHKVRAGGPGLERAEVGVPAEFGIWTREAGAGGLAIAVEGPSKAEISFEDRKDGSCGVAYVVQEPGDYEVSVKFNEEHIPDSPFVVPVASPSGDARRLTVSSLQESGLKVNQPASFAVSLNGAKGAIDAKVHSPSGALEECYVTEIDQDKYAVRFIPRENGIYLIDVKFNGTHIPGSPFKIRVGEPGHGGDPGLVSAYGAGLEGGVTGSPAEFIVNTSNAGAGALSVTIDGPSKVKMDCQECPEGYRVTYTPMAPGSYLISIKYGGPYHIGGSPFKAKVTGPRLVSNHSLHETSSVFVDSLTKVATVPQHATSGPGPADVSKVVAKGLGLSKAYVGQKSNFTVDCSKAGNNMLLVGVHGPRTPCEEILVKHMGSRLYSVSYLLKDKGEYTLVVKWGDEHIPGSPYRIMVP
UniProt P21333: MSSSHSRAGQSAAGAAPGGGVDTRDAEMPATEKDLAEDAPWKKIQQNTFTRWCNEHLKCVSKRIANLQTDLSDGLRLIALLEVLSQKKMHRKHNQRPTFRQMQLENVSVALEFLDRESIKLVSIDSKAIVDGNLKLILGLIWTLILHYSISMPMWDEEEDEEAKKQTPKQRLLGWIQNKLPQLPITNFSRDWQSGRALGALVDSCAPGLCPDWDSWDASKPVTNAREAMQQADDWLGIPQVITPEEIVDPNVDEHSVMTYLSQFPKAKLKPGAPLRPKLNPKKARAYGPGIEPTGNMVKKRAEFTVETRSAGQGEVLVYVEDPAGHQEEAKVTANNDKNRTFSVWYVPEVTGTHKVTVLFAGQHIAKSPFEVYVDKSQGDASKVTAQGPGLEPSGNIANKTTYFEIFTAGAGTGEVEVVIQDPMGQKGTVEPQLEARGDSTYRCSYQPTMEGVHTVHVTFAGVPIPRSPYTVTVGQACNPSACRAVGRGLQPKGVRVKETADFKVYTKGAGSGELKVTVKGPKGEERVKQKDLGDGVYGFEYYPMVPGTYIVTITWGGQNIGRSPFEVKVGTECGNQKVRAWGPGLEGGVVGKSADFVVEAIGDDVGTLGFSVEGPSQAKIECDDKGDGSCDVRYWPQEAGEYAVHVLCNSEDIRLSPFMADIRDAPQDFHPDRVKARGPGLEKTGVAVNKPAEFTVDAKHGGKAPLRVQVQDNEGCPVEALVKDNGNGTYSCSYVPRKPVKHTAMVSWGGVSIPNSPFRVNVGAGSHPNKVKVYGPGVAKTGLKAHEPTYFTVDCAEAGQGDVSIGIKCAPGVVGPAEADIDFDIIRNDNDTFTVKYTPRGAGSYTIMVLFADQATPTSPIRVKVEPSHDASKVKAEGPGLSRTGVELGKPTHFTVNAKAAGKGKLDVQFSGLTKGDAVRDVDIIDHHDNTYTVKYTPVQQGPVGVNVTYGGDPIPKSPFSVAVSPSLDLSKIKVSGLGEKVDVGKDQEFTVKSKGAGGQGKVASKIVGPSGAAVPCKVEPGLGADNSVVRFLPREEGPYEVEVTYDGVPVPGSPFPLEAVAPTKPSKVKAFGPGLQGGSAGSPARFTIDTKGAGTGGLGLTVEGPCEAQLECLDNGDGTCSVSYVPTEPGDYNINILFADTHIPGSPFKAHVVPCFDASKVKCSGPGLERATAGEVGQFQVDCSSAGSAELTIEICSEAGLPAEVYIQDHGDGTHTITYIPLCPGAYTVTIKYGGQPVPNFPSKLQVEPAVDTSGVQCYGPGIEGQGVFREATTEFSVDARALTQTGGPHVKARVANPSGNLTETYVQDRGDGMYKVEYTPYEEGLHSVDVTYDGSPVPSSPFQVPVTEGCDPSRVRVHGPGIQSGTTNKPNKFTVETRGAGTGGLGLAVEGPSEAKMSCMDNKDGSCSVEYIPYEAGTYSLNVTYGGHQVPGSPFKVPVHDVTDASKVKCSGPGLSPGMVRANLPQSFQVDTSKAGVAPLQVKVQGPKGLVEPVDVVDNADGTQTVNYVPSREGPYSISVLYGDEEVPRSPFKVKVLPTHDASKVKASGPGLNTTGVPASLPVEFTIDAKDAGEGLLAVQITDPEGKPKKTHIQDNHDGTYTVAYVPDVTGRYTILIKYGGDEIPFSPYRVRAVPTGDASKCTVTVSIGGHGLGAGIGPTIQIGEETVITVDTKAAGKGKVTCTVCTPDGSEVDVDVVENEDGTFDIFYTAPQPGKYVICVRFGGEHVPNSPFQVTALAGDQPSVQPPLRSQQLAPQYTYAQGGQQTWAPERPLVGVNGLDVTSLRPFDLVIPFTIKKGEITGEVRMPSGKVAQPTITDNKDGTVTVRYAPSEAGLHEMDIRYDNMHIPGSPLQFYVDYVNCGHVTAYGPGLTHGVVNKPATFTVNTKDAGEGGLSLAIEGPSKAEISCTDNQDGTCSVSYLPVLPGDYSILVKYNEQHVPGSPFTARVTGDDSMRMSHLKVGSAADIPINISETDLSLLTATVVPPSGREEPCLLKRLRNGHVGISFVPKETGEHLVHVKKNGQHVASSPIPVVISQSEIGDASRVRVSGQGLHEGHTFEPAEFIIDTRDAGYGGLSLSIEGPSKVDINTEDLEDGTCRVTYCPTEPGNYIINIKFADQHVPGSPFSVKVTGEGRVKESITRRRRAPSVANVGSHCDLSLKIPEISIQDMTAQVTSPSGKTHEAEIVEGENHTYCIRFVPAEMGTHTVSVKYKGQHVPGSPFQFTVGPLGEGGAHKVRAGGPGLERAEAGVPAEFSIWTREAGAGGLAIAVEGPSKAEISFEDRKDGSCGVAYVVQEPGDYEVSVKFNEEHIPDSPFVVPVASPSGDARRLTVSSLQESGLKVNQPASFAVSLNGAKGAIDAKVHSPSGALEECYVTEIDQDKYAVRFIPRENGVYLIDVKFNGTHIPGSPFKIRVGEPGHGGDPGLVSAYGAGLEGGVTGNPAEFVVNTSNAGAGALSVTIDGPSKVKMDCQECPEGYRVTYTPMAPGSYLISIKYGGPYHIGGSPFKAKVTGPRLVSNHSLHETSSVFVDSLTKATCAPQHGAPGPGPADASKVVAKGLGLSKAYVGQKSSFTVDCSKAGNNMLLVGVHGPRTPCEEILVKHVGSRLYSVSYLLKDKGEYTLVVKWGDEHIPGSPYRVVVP

Columns and labels:
[1] = biological target: T1, PC2 N-terminus (PC2N, aa M1-K215) fused to the GAL4 DNA binding domain (human) (UniProt Q13563); experiment: two-hybrid; GAL4 system; PC2N or PC2C as bait in pGBKT7, preys in pGADT7; human heart library screened in AH109, bait-prey pairs co-transformed in Y187; beta-GAL by X-gal filter lift at 30°C
T1 sequence: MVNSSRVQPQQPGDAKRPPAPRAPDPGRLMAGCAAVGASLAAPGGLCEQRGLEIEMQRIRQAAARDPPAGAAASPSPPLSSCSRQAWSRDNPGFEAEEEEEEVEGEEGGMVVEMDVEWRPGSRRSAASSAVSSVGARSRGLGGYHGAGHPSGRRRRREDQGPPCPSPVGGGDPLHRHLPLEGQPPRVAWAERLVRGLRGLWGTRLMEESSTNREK

[2] = biological target: T2, PC2 C-terminus (PC2C, aa D682-V968) fused to the GAL4 DNA binding domain (human) (UniProt Q13563); experiment: as above
T2 sequence: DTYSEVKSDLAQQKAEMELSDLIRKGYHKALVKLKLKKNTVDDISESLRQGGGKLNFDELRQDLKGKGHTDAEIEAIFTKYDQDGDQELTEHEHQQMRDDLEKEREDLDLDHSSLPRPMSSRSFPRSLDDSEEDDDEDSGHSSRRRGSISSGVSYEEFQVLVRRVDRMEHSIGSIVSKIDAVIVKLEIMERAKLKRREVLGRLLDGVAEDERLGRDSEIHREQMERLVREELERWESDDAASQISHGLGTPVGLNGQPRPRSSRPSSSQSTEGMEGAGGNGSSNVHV

[3] = biological target: endogenous FLNA of IMCD cells (not stated (endogenous in IMCD)) (UniProt Q8BTM8); experiment: co-IP; endogenous proteins in cell lysates (IMCD, MDCK, LLC-PK1, HEK293T); precipitated with anti-PC2 H-280 or, reciprocally, anti-FLNA H-300, non-immune rabbit IgG as control; blotted with anti-FLNA H-300 or anti-PC2 1A11
[4] = biological target: endogenous FLNA of HEK293T cells (human (endogenous in HEK293T)) (UniProt P21333); experiment: as above
[5] = biological target: FLNA of human melanoma A7 cells (human (called endogenous in A7)) (UniProt P21333); experiment: co-IP; A7 cells stably expressing GFP-PC2 and transiently expressing GFP-PC2N, GFP-PC2C, both, or GFP (48 hr); precipitated with anti-FLNA H-300, blotted with anti-GFP B-2

Molecule	binding [1]	binding [2]	other results
C-terminus of human FLNA (FLNAC, aa 2150-2647) in pGADT7 (from UniProt P21333 2150-2647) (domain or fragment)	binds	binds	–
endogenous PC2 of IMCD cells (protein, UniProt O35245 1-966) MVNSRRVQPQPPGDAGRSPAPRASGPGRLVAGGAGLAVPGGLGEQRGLEIEMERIRQAAARDPPAGASASPSPPLSSCSRQAWSRDNPGFEAEEDDDDDEVEGEEGGMVVEMDVEWRPGSRRSASSSAVSSVGARGRGLGSYRGAAHLSGRRRRLEDQGAQCPSPAGGGDPLHRHLPLEGQPPRVAWAERLVRGLRGLWGTRLMEESNANREKYLKSVLRELVTYLFFLVVLCILTYGMMSSNVYYYTRTLSQLFIDTPVSKTEKTNFKTLSSMEDFWKFTEGSFLDGLYWKAQTSNHTQADNRSFIFYENLLLGVPRLRQLRVRNGSCSIPQDLRDEIKECYDVYSVSSEDRAPFGPRNGTAWMYTSEKELNGSSHWGIIASYSGAGYYLDLSRTREETAAQLAGLRRNFWLDRGTRAAFIDFSVYNANINLFCVVRLLAEFPATGGVVPSWQFQPVKLIRYVTAFDFFLAACEIIFCFFIIYYVVEEILEIRIHRLSYFRSFWNCLDVVIVVLSVVAMVINIYRMSNAEGLLQFLEDQNSFPNFEHVAYWQIQFNNISAVMVFLVWIKLFKFINFNRTMSQLSTTMSRCAKDLFGFTIMFSIIFLAYAQLAYLVFGTQVDDFSTFQECIFTQFRIILGDINFAEIEEANRVLGPLYFTTFVFFMFFILLNMFLAIINDSYSEVKSDLAQQKAEMELSDLIRKGCQKALVKLKLKRNTVDAISESLRQGGGKLNFDELRQDLKGKGHTDAEIEAIFTKYDQDGDQELTEREHQQMRDDLEKEREDLDLEHSSLPRPMSSRSFPRSLDDSEEEDDEDSGHSSRRRGSISSGVSYEEFQVLVRRVDRMEHSIGSIVSKIDAVIVKLEIMERAKLKRREVLGRLLDGVAEDARLGRDSEIHREQMERLVREELERWESDDAASQTGHGVSTQVGLGGQPHPRNPRPPSSQSAEGLEGGGGNGSANVHA	–	–	binding [3]: binds
endogenous human PC2 (protein, UniProt Q13563 1-968) MVNSSRVQPQQPGDAKRPPAPRAPDPGRLMAGCAAVGASLAAPGGLCEQRGLEIEMQRIRQAAARDPPAGAAASPSPPLSSCSRQAWSRDNPGFEAEEEEEEVEGEEGGMVVEMDVEWRPGSRRSAASSAVSSVGARSRGLGGYHGAGHPSGRRRRREDQGPPCPSPVGGGDPLHRHLPLEGQPPRVAWAERLVRGLRGLWGTRLMEESSTNREKYLKSVLRELVTYLLFLIVLCILTYGMMSSNVYYYTRMMSQLFLDTPVSKTEKTNFKTLSSMEDFWKFTEGSLLDGLYWKMQPSNQTEADNRSFIFYENLLLGVPRIRQLRVRNGSCSIPQDLRDEIKECYDVYSVSSEDRAPFGPRNGTAWIYTSEKDLNGSSHWGIIATYSGAGYYLDLSRTREETAAQVASLKKNVWLDRGTRATFIDFSVYNANINLFCVVRLLVEFPATGGVIPSWQFQPLKLIRYVTTFDFFLAACEIIFCFFIFYYVVEEILEIRIHKLHYFRSFWNCLDVVIVVLSVVAIGINIYRTSNVEVLLQFLEDQNTFPNFEHLAYWQIQFNNIAAVTVFFVWIKLFKFINFNRTMSQLSTTMSRCAKDLFGFAIMFFIIFLAYAQLAYLVFGTQVDDFSTFQECIFTQFRIILGDINFAEIEEANRVLGPIYFTTFVFFMFFILLNMFLAIINDTYSEVKSDLAQQKAEMELSDLIRKGYHKALVKLKLKKNTVDDISESLRQGGGKLNFDELRQDLKGKGHTDAEIEAIFTKYDQDGDQELTEHEHQQMRDDLEKEREDLDLDHSSLPRPMSSRSFPRSLDDSEEDDDEDSGHSSRRRGSISSGVSYEEFQVLVRRVDRMEHSIGSIVSKIDAVIVKLEIMERAKLKRREVLGRLLDGVAEDERLGRDSEIHREQMERLVREELERWESDDAASQISHGLGTPVGLNGQPRPRSSRPSSSQSTEGMEGAGGNGSSNVHV	–	–	binding [4]: binds
GFP-PC2 (protein, UniProt Q13563 1-968) MVNSSRVQPQQPGDAKRPPAPRAPDPGRLMAGCAAVGASLAAPGGLCEQRGLEIEMQRIRQAAARDPPAGAAASPSPPLSSCSRQAWSRDNPGFEAEEEEEEVEGEEGGMVVEMDVEWRPGSRRSAASSAVSSVGARSRGLGGYHGAGHPSGRRRRREDQGPPCPSPVGGGDPLHRHLPLEGQPPRVAWAERLVRGLRGLWGTRLMEESSTNREKYLKSVLRELVTYLLFLIVLCILTYGMMSSNVYYYTRMMSQLFLDTPVSKTEKTNFKTLSSMEDFWKFTEGSLLDGLYWKMQPSNQTEADNRSFIFYENLLLGVPRIRQLRVRNGSCSIPQDLRDEIKECYDVYSVSSEDRAPFGPRNGTAWIYTSEKDLNGSSHWGIIATYSGAGYYLDLSRTREETAAQVASLKKNVWLDRGTRATFIDFSVYNANINLFCVVRLLVEFPATGGVIPSWQFQPLKLIRYVTTFDFFLAACEIIFCFFIFYYVVEEILEIRIHKLHYFRSFWNCLDVVIVVLSVVAIGINIYRTSNVEVLLQFLEDQNTFPNFEHLAYWQIQFNNIAAVTVFFVWIKLFKFINFNRTMSQLSTTMSRCAKDLFGFAIMFFIIFLAYAQLAYLVFGTQVDDFSTFQECIFTQFRIILGDINFAEIEEANRVLGPIYFTTFVFFMFFILLNMFLAIINDTYSEVKSDLAQQKAEMELSDLIRKGYHKALVKLKLKKNTVDDISESLRQGGGKLNFDELRQDLKGKGHTDAEIEAIFTKYDQDGDQELTEHEHQQMRDDLEKEREDLDLDHSSLPRPMSSRSFPRSLDDSEEDDDEDSGHSSRRRGSISSGVSYEEFQVLVRRVDRMEHSIGSIVSKIDAVIVKLEIMERAKLKRREVLGRLLDGVAEDERLGRDSEIHREQMERLVREELERWESDDAASQISHGLGTPVGLNGQPRPRSSRPSSSQSTEGMEGAGGNGSSNVHV	–	–	binding [5]: binds
C-terminus of human FLNB (FLNBC, aa 2105-2602) in pGADT7 (domain or fragment, UniProt O75369 2105-2602) APSVATVGSICDLNLKIPEINSSDMSAHVTSPSGRVTEAEIVPMGKNSHCVRFVPQEMGVHTVSVKYRGQHVTGSPFQFTVGPLGEGGAHKVRAGGPGLERGEAGVPAEFSIWTREAGAGGLSIAVEGPSKAEITFDDHKNGSCGVSYIAQEPGNYEVSIKFNDEHIPESPYLVPVIAPSDDARRLTVMSLQESGLKVNQPASFAIRLNGAKGKIDAKVHSPSGAVEECHVSELEPDKYAVRFIPHENGVHTIDVKFNGSHVVGSPFKVRVGEPGQAGNPALVSAYGTGLEGGTTGIQSEFFINTTRAGPGTLSVTIEGPSKVKMDCQETPEGYKVMYTPMAPGNYLISVKYGGPNHIVGSPFKAKVTGQRLVSPGSANETSSILVESVTRSSTETCYSAIPKASSDASKVTSKGAGLSKAFVGQKSSFLVDCSKAGSNMLLIGVHGPTTPCEEVSMKHVGNQQYNVTYVVKERGDYVLAVKWGEEHIPGSPFHVTVP	binds	binds	–
C-terminus of human FLNC (FLNCC, aa 2144-2725) in pGADT7 (domain or fragment, UniProt Q14315 2144-2725) APSIATIGSTCDLNLKIPGNWFQMVSAQERLTRTFTRSSHTYTRTERTEISKTRGGETKREVRVEESTQVGGDPFPAVFGDFLGRERLGSFGSITRQQEGEASSQDMTAQVTSPSGKVEAAEIVEGEDSAYSVRFVPQEMGPHTVAVKYRGQHVPGSPFQFTVGPLGEGGAHKVRAGGTGLERGVAGVPAEFSIWTREAGAGGLSIAVEGPSKAEIAFEDRKDGSCGVSYVVQEPGDYEVSIKFNDEHIPDSPFVVPVASLSDDARRLTVTSLQETGLKVNQPASFAVQLNGARGVIDARVHTPSGAVEECYVSELDSDKHTIRFIPHENGVHSIDVKFNGAHIPGSPFKIRVGEQSQAGDPGLVSAYGPGLEGGTTGVSSEFIVNTLNAGSGALSVTIDGPSKVQLDCRECPEGHVVTYTPMAPGNYLIAIKYGGPQHIVGSPFKAKVTGPRLSGGHSLHETSTVLVETVTKSSSSRGSSYSSIPKFSSDASKVVTRGPGLSQAFVGQKNSFTVDCSKAGTNMMMVGVHGPKTPCEEVYVKHMGNRVYNVTYTVKEKGDYILIVKWGDESVPGSPFKVKVP	binds	binds	–
